Measured data: PubChem BioAssay AID1259405 (NCATS, 2018)
Assay: 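Silenced genes that increase secreted GFP made by CHO cells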 (primary screen). Cells: Chinese hamster CHO-K1 ovary cells with stable secreted eGFP expression. Reagent: single siRNA against mouse genes, 0.8 pmol siRNA per well (2 µl of 400 nM stock). Timing: 3 days. Measurement: 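Percent of the per-plate non-targeting control median for intracellular GFP per well by laser scanning cytometry and for cell viability by ATP luminescence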. Direction: GFP, % of control: higher = more GFP per well, higher productivity; viability (ATP), % of control: higher = more viable cells (more ATP). Active means: 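a knock-down is called active if GFP reaches 120% or more of non-targeting control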.
The whole screen tested about 50,000 reagents; shown is a part drawn at random. About 4,000 of all reagents (8%) count as active. 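Mouse siRNA library applied to hamster cells; one well for each siRNA.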 Entries without a mark were called inactive. Reagents against one gene are numbered here. No sequences are given here.

Gene | reagent | GFP, % of control | viability (ATP), % of control
Ccdc85a (coiled-coil domain containing 85A) | 1 | 78.4 | 80
Ccdc85a (coiled-coil domain containing 85A) | 2 | 43.9 | 32.2
Ccdc85a (coiled-coil domain containing 85A) | 3 | 62.6 | 77
Cep170 (centrosomal protein 170) | 1 | 60.4 | 106
Cep170 (centrosomal protein 170) | 2 | 71.9 | 68.7
Cep170 (centrosomal protein 170) | 3 | 75.6 | 121
Robo1 (roundabout guidance receptor 1) | 1 | 68.7 | 87.7
Robo1 (roundabout guidance receptor 1) | 2 | 76.4 | 93.1
Robo1 (roundabout guidance receptor 1) | 3 | 42.1 | 60.1
Zbtb17 (zinc finger and BTB domain containing 17) | 1 | 79.6 | 100
Zbtb17 (zinc finger and BTB domain containing 17) | 2 | 56.5 | 83.2
Zbtb17 (zinc finger and BTB domain containing 17) | 3 | 54.1 | 68.7
Arid2 (AT-rich interaction domain 2) | 1 | 41.4 | 39.1
Arid2 (AT-rich interaction domain 2) | 2 | 82 | 100
Arid2 (AT-rich interaction domain 2) | 3 | 21 | 23.1
Arhgef40 (Rho guanine nucleotide exchange factor 40) | 1 | 143 (active) | 80.9
Arhgef40 (Rho guanine nucleotide exchange factor 40) | 2 | 90.9 | 82.7
Arhgef40 (Rho guanine nucleotide exchange factor 40) | 3 | 70.8 | 61.8
Ppp1r16b (protein phosphatase 1, regulatory subunit 16B) | 1 | 98.8 | 87.2
Ppp1r16b (protein phosphatase 1, regulatory subunit 16B) | 2 | 60.4 | 36.3
Ppp1r16b (protein phosphatase 1, regulatory subunit 16B) | 3 | 104 | 79
Clec3b (C-type lectin domain family 3, member b) | 1 | 53 | 58.6
Clec3b (C-type lectin domain family 3, member b) | 2 | 79.5 | 66.3
Clec3b (C-type lectin domain family 3, member b) | 3 | 84 | 73.1
Myo1h (myosin 1H) | 1 | 89.9 | 92.5
Myo1h (myosin 1H) | 2 | 81.3 | 78.3
Myo1h (myosin 1H) | 3 | 39.2 | 53.4
Nfrkb (nuclear factor related to kappa B binding protein) | 1 | 46.2 | 50.1
Nfrkb (nuclear factor related to kappa B binding protein) | 2 | 85.3 | 109
Nfrkb (nuclear factor related to kappa B binding protein) | 3 | 65 | 75.9
Nfib (nuclear factor I/B) | 1 | 104 | 103
Nfib (nuclear factor I/B) | 2 | 80 | 77.5
Nfib (nuclear factor I/B) | 3 | 79.6 | 92.3
Pcdha1 (protocadherin alpha 1) | 1 | 60.6 | 51.6
Pcdha1 (protocadherin alpha 1) | 2 | 43.3 | 48.7
Pcdha1 (protocadherin alpha 1) | 3 | 61.4 | 44.8
Tom1l2 (target of myb1-like 2 (chicken)) | 1 | 78.5 | 76.2
Tom1l2 (target of myb1-like 2 (chicken)) | 2 | 63.4 | 76.3
Tom1l2 (target of myb1-like 2 (chicken)) | 3 | 63.6 | 103
Krt42 (keratin 42) | 1 | 56.4 | 59.1
Krt42 (keratin 42) | 2 | 70.2 | 80.7
Krt42 (keratin 42) | 3 | 55 | 48.6
Tnni1 (troponin I, skeletal, slow 1) | 1 | 58.6 | 54.5
Tnni1 (troponin I, skeletal, slow 1) | 2 | 36.6 | 30.4
Tnni1 (troponin I, skeletal, slow 1) | 3 | 79.6 | 55.9
Capza2 (capping actin protein of muscle Z-line subunit alpha 2) | 1 | 51.6 | 53.1
Capza2 (capping actin protein of muscle Z-line subunit alpha 2) | 2 | 63.6 | 65
Capza2 (capping actin protein of muscle Z-line subunit alpha 2) | 3 | 51.6 | 71.1
Anks1b (ankyrin repeat and sterile alpha motif domain containing 1B) | 1 | 44.4 | 33
Anks1b (ankyrin repeat and sterile alpha motif domain containing 1B) | 2 | 74.3 | 71.9
Anks1b (ankyrin repeat and sterile alpha motif domain containing 1B) | 3 | 60.2 | 69
Trpm7 | 1 | 73.5 | 74.5
Trpm7 | 2 | 84.3 | 56.2
Trpm7 | 3 | 75.7 | 59.7
2410002F23Rik (RIKEN cDNA 2410002F23 gene) | 1 | 70.1 | 77.5
2410002F23Rik (RIKEN cDNA 2410002F23 gene) | 2 | 81.6 | 75.4
2410002F23Rik (RIKEN cDNA 2410002F23 gene) | 3 | 89.6 | 84.5
Or51ai2 (olfactory receptor family 51 subfamily AI member 2) | 1 | 111 | 42.1
Or51ai2 (olfactory receptor family 51 subfamily AI member 2) | 2 | 79.3 | 61
Or51ai2 (olfactory receptor family 51 subfamily AI member 2) | 3 | 86.5 | 72
Manba (mannosidase, beta A, lysosomal) | 1 | 64.4 | 99.3
Manba (mannosidase, beta A, lysosomal) | 2 | 70.4 | 96.2
Manba (mannosidase, beta A, lysosomal) | 3 | 58.5 | 98.5
Abcg8 (ATP binding cassette subfamily G member 8) | 1 | 79.8 | 43.1
Abcg8 (ATP binding cassette subfamily G member 8) | 2 | 89.2 | 62.4
Abcg8 (ATP binding cassette subfamily G member 8) | 3 | 93.1 | 65.6
Vac14 (Vac14 homolog (S. cerevisiae)) | 1 | 81.2 | 111
Vac14 (Vac14 homolog (S. cerevisiae)) | 2 | 162 (active) | 118
Vac14 (Vac14 homolog (S. cerevisiae)) | 3 | 85.9 | 96
Alg12 (ALG12 alpha-1,6-mannosyltransferase) | 1 | 97.2 | 34.8
Alg12 (ALG12 alpha-1,6-mannosyltransferase) | 2 | 52.5 | 59.9
Alg12 (ALG12 alpha-1,6-mannosyltransferase) | 3 | 122 (active) | 59
Zfp688 (zinc finger protein 688) | 1 | 59.5 | 64.1
Zfp688 (zinc finger protein 688) | 2 | 58.6 | 78.9
Zfp688 (zinc finger protein 688) | 3 | 70.2 | 69.9
Dnah8 (dynein, axonemal, heavy chain 8) | 1 | 60.8 | 68.7
Dnah8 (dynein, axonemal, heavy chain 8) | 2 | 73.1 | 71.1
Pkn2 (protein kinase N2) | 1 | 54.8 | 59
Pkn2 (protein kinase N2) | 2 | 64.1 | 50
Pkn2 (protein kinase N2) | 3 | 73.9 | 73.5
Reg1 (regenerating islet-derived 1) | 1 | 94.1 | 84.3
Reg1 (regenerating islet-derived 1) | 2 | 82 | 83.7
Reg1 (regenerating islet-derived 1) | 3 | 56.4 | 96.8
Cep128 (centrosomal protein 128) | 1 | 73 | 81.3
Cep128 (centrosomal protein 128) | 2 | 107 | 56.4
Cep128 (centrosomal protein 128) | 3 | 51.5 | 77.2

Hits (from the list above):
Gene | reagent | GFP, % of control | viability (ATP), % of control
Arhgef40 (Rho guanine nucleotide exchange factor 40) | 1 | 143 (active) | 80.9
Vac14 (Vac14 homolog (S. cerevisiae)) | 2 | 162 (active) | 118
Alg12 (ALG12 alpha-1,6-mannosyltransferase) | 3 | 122 (active) | 59
